# Measurements reported in PubChem BioAssay AID743121 (NCATS, 2013).
# Test: 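Knock-downs that sensitise breast cancer cells to camptothecin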 (primary screen)
# System: MDA-MB-231 cells, a human breast cancer line
# Reagent: single siRNA against human genes, 20 nM siRNA (0.8 pmol per well)
# Timing: 120 h (drug added 48 h after transfection, read 72 h later)
# Conditions: camptothecin 20 nM (about EC30) for 72 h; vehicle 0.1% DMSO in parallel plates
# Read-out: 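Cell viability by ATP luminescence (CellTiter-Glo) as % of non-targeting siRNA wells, and the log2 ratio of viability without drug over viability with camptothecin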
# Direction: log2 vehicle/camptothecin viability: higher = stronger sensitisation to camptothecin
# Hit rule: 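Each gene scored by redundant siRNA activity (RSA) over its individual siRNA ratios; a gene is called active at p < 0.001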
# In all, the deposit lists about 26,000 reagents; this is a part drawn at random. 167 of them (0.63%) were called active. 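Calls are per gene from RSA p-values that are not deposited; an individual active-marked siRNA can sensitise only weakly.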 Unmarked entries are inactive. Reagents against one gene are numbered here. Not all columns of the deposit are shown. No sequences are given here.
gene symbol,reagent,log2 vehicle/camptothecin viability
TICAM1,1,-0.508
TICAM1,2,0.0872
TICAM1,3,0.704
GPR132,1,0.316
GPR132,2,0.523
GPR132,3,-0.331
GPR132,4,-0.252
NID2,1,0.251
NID2,2,0.526
NID2,3,-0.0848
NID2,4,-0.29
IL36A,1,0.015
IL36A,2,-0.341
IL36A,3,0.0713
CYP24A1,1,-0.183
CYP24A1,2,0.204
CYP24A1,3,0.00555
EPHA2,1,-0.319
EPHA2,2,-0.0166
EPHA2,3,-0.00212
EPHA2,4,0.587
PDE3B,1,-0.229
PDE3B,2,0.0155
PDE3B,3,-0.128
PDE3B,4,-0.476
CDCA8,1,-0.385
CDCA8,2,-0.213
CDCA8,3,-0.24
TP53RK,1,-0.0418
TP53RK,2,-0.451
TP53RK,3,-0.702
TP53RK,4,-0.209
ETS1,1,0.222
ETS1,2,-0.531
ETS1,3,0.285
ETS1,4,-0.222
ADAM33,1,1.02
ADAM33,2,-0.169
ADAM33,3,-0.376
ADAM33,4,-0.349
DUSP16,1,-0.209
DUSP16,2,-0.208
DUSP16,3,-0.692
DUSP16,4,-0.000202
DGKB,1,0.448
DGKB,2,0.802
DGKB,3,0.344
DGKB,4,-0.0518
SLC25A47,1,-0.247
SLC25A47,2,-0.273
SLC25A47,3,0.0708
SLC25A47,4,-0.641
SIRT2,1,-0.112
SIRT2,2,-0.212
SIRT2,3,-0.526
SIRT2,4,-0.254
SLC10A4,1,0.16
SLC10A4,2,0.0469
SLC10A4,3,-0.458
SLC10A4,4,0.0147
RAD17,1,-0.165
RAD17,2,-0.272
RAD17,3,-0.445
RAD17,4,0.162
ITGA9,1,-0.678
ITGA9,2,-0.183
ITGA9,3,-0.474
ITGA9,4,-0.0971
